Experimental data reported in doi:10.1101/860833.
These are yes or no findings as the source states them, for the method shown. Binding seen in cells or lysates may run through a third protein. Some binding calls cover weakened binding; strength is not graded here.

Target: HSPA14 (human) (UniProt Q0VDF9)
Experiment: co-IP

binding: binds
B1: HSPA14 (protein, UniProt Q0VDF9 1-509)
chain: MAAIGVHLGCTSACVAVYKDGRAGVVANDAGDRVTPAVVAYSENEEIVGLAAKQSRIRNISNTVMKVKQILGRSSSDPQAQKYIAESKCLVIEKNGKLRYEIDTGEETKFVNPEDVARLIFSKMKETAHSVLGSDANDVVITVPFDFGEKQKNALGEAARAAGFNVLRLIHEPSAALLAYGIGQDSPTGKSNILVFKLGGTSLSLSVMEVNSGIYRVLSTNTDDNIGGAHFTETLAQYLASEFQRSFKHDVRGNARAMMKLTNSAEVAKHSLSTLGSANCFLDSLYEGQDFDCNVSRARFELLCSPLFNKCIEAIRGLLDQNGFTADDINKVVLCGGSSRIPKLQQLIKDLFPAVELLNSIPPDEVIPIGAAIEAGILIGKENLLVEDSLMIECSARDILVKGVDESGASRFTVLFPSGTPLPARRQHTLQAPGSISSVCLELYESDGKNSAKEETKFAQVVLQDLDKKENGLRDILAVLTMKRDGSLHVTCTDQETGKCEAISIEIAS
